Experimental data: PubChem BioAssay AID1259254 (NCATS, 2017)
Here is one part, drawn at random, of about 59,000 reagents tested. Over the whole deposit, about 1,550 (2.6%) are marked active. 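G2 share is only a proxy for re-replication; each gene was hit by three separate siRNAs, and active genes were retested.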 Reagents against one gene are numbered here. Not all columns of the deposit are shown. Not given: the amount of reagent.

Purpose: 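Gene knock-downs that lead to re-replication, shown by excess G2 DNA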 (primary screen)
Cells: human HCT116 colorectal cancer cells
Reagent: single siRNA against human genes
Timing: 3 days
Detection: 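Nuclei stained with Hoechst and imaged; cell-cycle phase assigned by DNA content; G2 share scaled per plate, non-targeting siRNA 0%, GMNN siRNA 100%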
Scale: G2 robust z-score: higher = more G2 cells, more excess DNA replication
Active means: 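Active siRNAs have a G2 robust z of 5 or more median absolute deviations over the median, which in these data means about 38% or higher of GMNN control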

SH3GL3 (SH3 domain containing GRB2 like 3, endophilin A3) #1 showed G2 robust z-score -0.476; inactive.
SH3GL3 (SH3 domain containing GRB2 like 3, endophilin A3) #2 showed G2 robust z-score -0.731; inactive.
SH3GL3 (SH3 domain containing GRB2 like 3, endophilin A3) #3 showed G2 robust z-score 0.108; inactive.
Against FAM131A (family with sequence similarity 131 member A) #1, the entry reads G2 robust z-score -0.463; inactive.
Against FAM131A (family with sequence similarity 131 member A) #2, the entry reads G2 robust z-score -0.587; inactive.
After knock-down of FAM131A (family with sequence similarity 131 member A) #3 the results were G2 robust z-score -0.0271; inactive.
Silencing of TSLIG2 (tRNA splicing ligase complex subunit 2) #1 came out at: G2 robust z-score -0.234; inactive.
Depletion of TSLIG2 (tRNA splicing ligase complex subunit 2) #2 resulted in: G2 robust z-score -1.25; inactive.
TSLIG2 (tRNA splicing ligase complex subunit 2) #3 showed G2 robust z-score -0.642; inactive.
After knock-down of IL37 (interleukin 37) #1 the results were G2 robust z-score 2.65; inactive.
For IL37 (interleukin 37) #2, the entry reads G2 robust z-score -1.27; inactive.
IL37 (interleukin 37) #3 showed G2 robust z-score 6.16; active.

Called active, of those listed so far:
IL37 (interleukin 37) #3 → G2 robust z-score: 6.16; call: active

Continued.
Knock-down of ADCK1 (aarF domain containing kinase 1) #1 gave: G2 robust z-score 0.343; inactive.
With knock-down of ADCK1 (aarF domain containing kinase 1) #2, the screen gave G2 robust z-score -0.675; inactive.
After knock-down of ADCK1 (aarF domain containing kinase 1) #3 the results were G2 robust z-score 2.2; inactive.
Knock-down of GCNT3 (glucosaminyl (N-acetyl) transferase 3, mucin type) #1 gave: G2 robust z-score 1.34; inactive.
With knock-down of GCNT3 (glucosaminyl (N-acetyl) transferase 3, mucin type) #2 the results were G2 robust z-score 1.73; inactive.
For GCNT3 (glucosaminyl (N-acetyl) transferase 3, mucin type) #3 the deposit lists G2 robust z-score -0.315; inactive.
With knock-down of POLR3H (RNA polymerase III subunit H) #1, the screen gave G2 robust z-score -0.921; inactive.
Depletion of POLR3H (RNA polymerase III subunit H) #2 resulted in: G2 robust z-score -0.425; inactive.
Depletion of POLR3H (RNA polymerase III subunit H) #3 resulted in: G2 robust z-score 0.14; inactive.
After knock-down of TEX101 (testis expressed 101) #1, the screen gave G2 robust z-score 1.25; inactive.
Against TEX101 (testis expressed 101) #2, the values are G2 robust z-score -0.474; inactive.
For TEX101 (testis expressed 101) #3, the values are G2 robust z-score -0.524; inactive.
